Results from PMC8629785.
No constants are given. Whether binding was seen depends on the method and setting. In cells and extracts the contact can be indirect. For some assays here: A result given as binding can be weak or reduced; the word gives no strength. Where a sequence is shown, tags or fusion partners need not be part of it.

Assays:
[1] = target: T1, HA-GLYT2 (UniProt P58295); assay: co-IP; HEK293 cells transiently co-transfected with tagged proteins, 48 h; solubilised in RIPA buffer (0.1% SDS, 1% Triton X100, 0.5% sodium deoxycholate, 150 mM NaCl), in some panels a modified RIPA without SDS or with rising SDS (diluted to 0.1% before IP); antibody to the tag overnight at 4 °C, protein A or G agarose, western blot
T1 sequence: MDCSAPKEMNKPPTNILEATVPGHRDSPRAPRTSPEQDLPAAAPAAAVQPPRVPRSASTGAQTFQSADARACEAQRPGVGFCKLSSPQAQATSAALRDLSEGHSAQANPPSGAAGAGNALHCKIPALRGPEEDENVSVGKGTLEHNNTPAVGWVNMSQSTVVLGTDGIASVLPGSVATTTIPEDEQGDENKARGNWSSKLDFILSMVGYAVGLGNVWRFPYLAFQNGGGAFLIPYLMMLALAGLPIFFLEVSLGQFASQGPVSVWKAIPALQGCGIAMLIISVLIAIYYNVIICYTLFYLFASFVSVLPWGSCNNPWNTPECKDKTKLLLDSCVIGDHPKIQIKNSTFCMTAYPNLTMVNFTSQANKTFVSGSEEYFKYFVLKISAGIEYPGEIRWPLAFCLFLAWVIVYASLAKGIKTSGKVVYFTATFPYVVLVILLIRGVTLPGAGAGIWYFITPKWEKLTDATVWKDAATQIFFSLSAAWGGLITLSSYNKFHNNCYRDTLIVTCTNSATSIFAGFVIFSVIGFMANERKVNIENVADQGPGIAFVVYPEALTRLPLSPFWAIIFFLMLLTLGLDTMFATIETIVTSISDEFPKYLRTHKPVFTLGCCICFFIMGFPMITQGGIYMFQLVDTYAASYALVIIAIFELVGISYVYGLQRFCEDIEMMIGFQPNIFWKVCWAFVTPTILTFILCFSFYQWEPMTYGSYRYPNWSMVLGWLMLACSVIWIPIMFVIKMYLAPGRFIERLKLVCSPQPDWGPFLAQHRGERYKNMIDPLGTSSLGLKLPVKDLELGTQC

[2] = target: T2, HA-GLYT1 (UniProt P28572); assay: as above
T2 sequence: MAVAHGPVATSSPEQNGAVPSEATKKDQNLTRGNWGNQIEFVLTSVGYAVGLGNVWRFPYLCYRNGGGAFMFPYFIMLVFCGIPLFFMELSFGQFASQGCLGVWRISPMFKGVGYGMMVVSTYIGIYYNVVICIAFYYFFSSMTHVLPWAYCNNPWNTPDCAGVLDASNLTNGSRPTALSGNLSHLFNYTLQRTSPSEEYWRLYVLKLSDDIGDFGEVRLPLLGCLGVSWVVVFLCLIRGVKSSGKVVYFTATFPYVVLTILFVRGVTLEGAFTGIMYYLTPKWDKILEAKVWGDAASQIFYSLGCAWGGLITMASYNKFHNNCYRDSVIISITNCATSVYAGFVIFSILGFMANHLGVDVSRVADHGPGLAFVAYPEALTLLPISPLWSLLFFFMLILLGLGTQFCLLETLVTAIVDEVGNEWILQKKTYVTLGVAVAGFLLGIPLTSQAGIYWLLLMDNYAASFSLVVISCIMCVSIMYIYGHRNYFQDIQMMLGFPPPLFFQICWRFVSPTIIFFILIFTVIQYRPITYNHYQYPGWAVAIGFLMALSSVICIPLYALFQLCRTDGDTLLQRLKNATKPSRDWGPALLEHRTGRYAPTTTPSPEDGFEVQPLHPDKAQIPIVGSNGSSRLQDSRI

## myc-4F2hc WT (human)
[1]
  binding: binds
[2]
  binding: no binding
